Results published in patent US20260072027A1, “Peptides And Method” (Queen Mary University of London, priority 2022, published 2026).

The sequences below were run on serum IgG autoantibodies (assay: ELISA for autoantibody detection: serum antibody binding to native and oxPTM insulin peptides). Details: type 1 diabetes vs healthy controls; in house modifications.
Design: species or system human
Description: ELISA for autoantibody detection. The ELISA analysis of Nt-INS and oxPTM-INS autoantibodies was performed as previously described [18](detailed in ESM methods, ELISA assay for antibody detection).
Statistical analyses. Statistical analyses were performed using Prism Software 9.0 (GraphPad, San Diego, CA, USA). Cut-off points of positivity (binders) in the antibody ELISA for each peptide were defined by the mean of optical absorbance (O.D) of healthy controls to the corresponding Nt-INSP plus three times the standard error of the mean (SEM). Specificity and sensitivity were evaluated by receiver operating characteristic (ROC) curve analysis. Area under the curve (AUC) is reported as absolute value and was tested for equality according to DeLong et al. Differences in antibody levels and T-cell stimulation indices (SI) between groups were tested by the One way ANOVA or Student's t-tests as appropriate. Correlation analyses were tested by Pearson or Spearman's test, as appropriate. Categorical analyses were performed by Chi-square or McNemar's tests, as appropriate. For each set of experiments, p values were adjusted for multiple comparison using the Holm-Sidak's test. Hierarchical cluster and Principal Component Analysis (PCA) was done using Clustvis software (https://biit.cs.ut.ee/clustvis/) and Prism Software 9.0, respectively.
Antibody reactivity of type 1 diabetes serum against the candidate oxPTM-INSP. Identified peptide candidates were synthesised and exposed to either HOCl or ^●OH to generate oxPTM-INSPs that were first assessed by TOF-MS/ES+TIC to confirm modification (FIG. 17). Antibody response against native INSPs (Nt-INSPs) and oxPTM-INSPs was evaluated by ELISA using sera from Study cohort 1.
ESM Methods ELISA assay for antibody detection. The ELISA analysis of native (Nt-INS) and modified insulin (oxPTM-INS) was performed as previously described. […] The optical density (O.D.) was measured at 450 nm using a GENios plate reader and Magellan software (TECAN, Dorset, UK).

Row | Sequence | AUC (ROC)
1 | SLYQLENYCN [insulin A:12-21 native peptide] | 0.648
2 | ERGFFYTPKT [insulin B:21-30 native peptide] | 0.879
3 | LVEALYLVCGERGFFYTPKT [insulin B:11-30 native peptide] | 0.730
